The results in this text go back to article PMC3517456.

Sequences of proteins named here, by UniProt entry; tags and fusion partners are left off. A change or cut given only in a name is not applied to a line headed by its entry.
UniProt P50616: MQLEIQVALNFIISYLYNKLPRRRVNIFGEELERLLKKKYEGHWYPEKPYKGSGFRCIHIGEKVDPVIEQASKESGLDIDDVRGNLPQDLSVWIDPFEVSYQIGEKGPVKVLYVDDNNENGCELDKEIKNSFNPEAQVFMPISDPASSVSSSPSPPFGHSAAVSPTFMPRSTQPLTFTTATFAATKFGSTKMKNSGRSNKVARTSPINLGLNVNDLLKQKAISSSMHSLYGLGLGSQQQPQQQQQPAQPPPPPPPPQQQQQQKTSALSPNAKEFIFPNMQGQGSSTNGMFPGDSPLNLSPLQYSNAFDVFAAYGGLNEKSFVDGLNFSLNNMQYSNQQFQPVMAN
UniProt Q9UFF9: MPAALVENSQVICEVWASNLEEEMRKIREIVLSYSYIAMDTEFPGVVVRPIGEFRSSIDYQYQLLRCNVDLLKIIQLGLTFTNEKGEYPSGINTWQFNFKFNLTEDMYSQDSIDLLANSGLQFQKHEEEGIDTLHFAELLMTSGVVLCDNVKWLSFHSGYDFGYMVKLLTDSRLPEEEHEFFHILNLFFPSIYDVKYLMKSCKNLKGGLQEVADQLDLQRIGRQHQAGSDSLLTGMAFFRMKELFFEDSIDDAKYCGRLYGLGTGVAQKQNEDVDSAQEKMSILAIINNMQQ
UniProt Q9UIV1: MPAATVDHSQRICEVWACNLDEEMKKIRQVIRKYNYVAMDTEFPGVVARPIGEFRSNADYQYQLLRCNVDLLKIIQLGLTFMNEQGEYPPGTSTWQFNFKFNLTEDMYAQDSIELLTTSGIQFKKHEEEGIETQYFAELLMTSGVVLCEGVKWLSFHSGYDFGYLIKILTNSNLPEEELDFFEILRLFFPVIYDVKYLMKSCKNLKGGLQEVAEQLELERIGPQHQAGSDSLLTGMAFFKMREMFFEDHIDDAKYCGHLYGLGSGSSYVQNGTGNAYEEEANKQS

This assay concerns the target Gal4-DNA binding domain-TOB1 H45A (human) (UniProt P50616). The experiment in a line: two-hybrid; yeast strain YRG-2; BTG2 or TOB1 fused to the GAL4 DNA-binding domain, Caf1a or Caf1b fused to the GAL4 activation domain; LacZ reporter under five GAL4 consensus sequences; β-galactosidase activity (Beta-GLO) normalised to OD600; triplicate.

These are yes or no findings as the source states them, for the method shown. Binding can be weak; no strength is given.

Consider “Gal4AD-Caf1b (from UniProt Q9UFF9 1-292) (enzyme)”, for which the binding entry is given as “binds”.
Next, “Gal4AD-Caf1a (from UniProt Q9UIV1 1-285) (enzyme)”: “binds”.
